Hit rate of the full screen: of about 2,100 compounds, about 210 (10%) were called active. Inconclusive results, whose numbers are uncertain, are shown with a selection of clear calls. Calls follow the shape of the dose curve; as a rule, active = well fitted inhibition curve with a large enough effect; inconclusive = small, poorly fitted or top-dose-only effect, or effect the other way; inactive = no such curve, though single readings can be large or run the other way. Potencies of inconclusive entries are doubtful fits and often do not repeat.
assay: IN Cell qHTS Assay for Inhibitors of the mTORC1 Signaling Pathway in MEF (Tsc2-/-, p53-/-) Cells: Sytravon; details: phospho-rpS6 immunofluorescence, 24 h; activity, negative = inhibition: at 38.3 µM (top of the series); also: nearly all actives have a fitted effect of over 60% in size
In short: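 Tsc2-/-, p53-/- MEFs (empty-vector) treated with compound 24 h at 37 degree Celsius, then fixed and stained for phospho-rpS6 Ser235/236 (Alexa-488) plus Hoechst. Reported as % positive cells, thresholds set against 7.5 nM rapamycin and DMSO wells.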
Potency is read from the fitted curve at half-maximal effect.

**Q.** Which Potency does the source give for `COc1ccc(Cn2c(C(=O)O)c(CNCc3cccc(OC)c3)c3ccc(C)cc32)cc1` here?
**A.** inconclusive: 14.7 µM [falling, single point]

**Q.** For `CCOC(=O)c1[nH]c(C)c(CCC(=O)Nc2c(C)cc(C)cc2C)c1C`, which Potency is on record?
**A.** inconclusive: 23.3 µM [falling, single point]

**Q.** For `O=C(/C=C/c1cn(CC(O)CN2CCCCCC2)c2ccccc12)c1ccccc1` (centres undefined), which Potency is on record?
**A.** inconclusive: 23.3 µM [falling, single point]

**Q.** With `CCc1cccc(C)c1Nc1c(-c2ccc(N(C)C)cc2)nc2ncccn12` as the compound, how does the Potency read?
**A.** inconclusive: 18.5 µM [falling, single point]

**Q.** Which Potency does the source give for `CCOc1cc(CNC(=O)c2ccc(NC(=O)c3nsc4ccccc34)cc2)ccc1OC` here?
**A.** inconclusive: 23.3 µM [falling, single point]

**Q.** Which Potency does the source give for `CCCc1oc2ccc(NS(=O)(=O)c3ccc(OC)cc3)cc2c1C(=O)OCC` here?
**A.** inconclusive: 0.521 µM [falling, full curve, poor fit]

**Q.** Which Potency does the source give for `Cn1c(=O)c2cc(C(=O)NC3CCCCCC3)sc2c2ccccc21` here?
**A.** inconclusive: 26.1 µM [falling, single point]

**Q.** Which Potency does the source give for `Cc1ccc(-n2ncc(C(=O)NCCCN3CCc4ccccc4C3)c2C2CCN(C(=O)OC(C)(C)C)CC2)c(C)c1` here?
**A.** inconclusive: 23.3 µM [falling, single point]

**Q.** For `COc1ccc2c(c1)-c1nc(NC(=O)c3cc(OC)c(OC)c(OC)c3)sc1CC2`, which Potency is on record?
**A.** inconclusive: 26.1 µM [falling, single point]

**Q.** Which Potency does the source give for `CCOc1ccccc1NC(=O)c1nc(S(=O)(=O)Cc2cccc(C)c2)ncc1Cl` here?
**A.** inconclusive: 1.47 µM [falling, partial curve, poor fit]

**Q.** For `COc1ccc(C(=O)NCCn2cc(SCC(=O)Nc3ccc4c(c3)OCCO4)c3ccccc32)cc1`, which activity, negative = inhibition is on record?
**A.** inconclusive: 7.59% [activator]

**Q.** Which Potency does the source give for `Cc1cccc2c(=O)cc(CSc3ccccc3NC(=O)C(C)C)[nH]c12` here?
**A.** inconclusive: 18.5 µM [activator, partial curve, poor fit]

**Q.** For `COc1ccc(NC(=O)CC2Oc3ccc(C)cc3NC2=O)cc1Cl` (centres undefined), which Potency is on record?
**A.** inconclusive: 2.93 µM [falling, partial curve, poor fit]

**Q.** Which Potency does the source give for `CCN(CC)c1cc(C)c2cc(NC(=O)c3ccc(OC)c(OC)c3)ccc2n1` here?
**A.** inconclusive: 11.7 µM [falling, single point]

**Q.** For `N#Cc1ccc(-c2cccs2)nc1SCc1c(F)cccc1Cl`, which Potency is on record?
**A.** inconclusive: 1.31 µM [falling, partial curve, poor fit]

**Q.** For `COc1ccc(Nc2c3c(nc4ccc(NC(=O)/C=C/c5cc(OC)c(OC)c(OC)c5)cc24)CCCC3)cc1OC`, which Potency is on record?
**A.** active: 1.47 µM

**Q.** For `COc1ccc(-c2nc3cc(NC(=O)Cc4ccc(Cl)cc4)ccc3o2)cc1OC`, which Potency is on record?
**A.** active: 3.29 µM

**Q.** With `CC1=C(C(=O)Nc2ccccc2)C(c2cccnc2)n2nc(SCc3ccccc3F)nc2N1` (centres undefined) as the compound, how does the Potency read?
**A.** inactive

**Q.** For `COc1cc(OC)c(-c2cc(C(=O)NCc3ccc(F)cc3)c3c(-c4ccccc4)[nH]nc3n2)cc1OC`, which Potency is on record?
**A.** inconclusive: 23.3 µM [falling, single point]

**Q.** For `COc1ccc(NCc2cc3cc4c(cc3n(CC(=O)Nc3cc(C)ccc3C)c2=O)OCCO4)cc1`, which Potency is on record?
**A.** inconclusive: 5.21 µM [falling, single point]

**Q.** For `Cc1ccc(-c2cn(-c3cccc(Cl)c3)c(S(=O)(=O)CC(=O)Nc3cccc(C)c3)n2)cc1`, which Potency is on record?
**A.** inconclusive: 0.0207 µM [falling, full curve, poor fit]

**Q.** With `CC1CCn2c(nc3cc(C(=O)NCc4ccccc4)ccc32)C1` (centres undefined) as the compound, how does the Potency read?
**A.** inactive

**Q.** Which Potency does the source give for `Cc1cc(-c2ccc(C)c(S(=O)(=O)NCC3CCN(Cc4ccc(F)cc4)CC3)c2)on1` here?
**A.** inconclusive: 20.7 µM [falling, partial curve, poor fit]

**Q.** With `COc1ccc(Nc2cc(C)nc3c(C)c(C)ccc23)cc1` as the compound, how does the Potency read?
**A.** inactive

**Q.** For `CCc1ccc(C2CC(=O)c3c([nH]c(C(=O)OCCOc4ccccc4)c3C)C2)cc1` (centres undefined), which Potency is on record?
**A.** inconclusive: 23.3 µM [falling, single point]

**Q.** With `CCOC(=O)c1c(C)[nH]c(CCC(=O)Nc2cc(C)ccc2OC)c1C` as the compound, how does the Potency read?
**A.** inconclusive: 14.7 µM [falling, single point]

**Q.** Which Potency does the source give for `Cc1cc2ncn(CCCCOc3ccccc3)c2cc1C` here?
**A.** inconclusive: 23.3 µM [falling, single point]

**Q.** Which Potency does the source give for `CCc1ccc(CNC(=O)c2ccc(NC(=O)N3CCCCc4ccccc43)cc2)cc1` here?
**A.** inactive

**Q.** For `CCOc1ccc(N(C(=O)Cn2nnc3ccccc32)C(C(=O)NCc2ccccc2)c2ccc(OC)cc2)cc1` (centres undefined), which Potency is on record?
**A.** inactive

**Q.** For `CC(=O)Nc1cccc(NC(=O)C(=O)NCCc2sc(-c3ccccc3)nc2C)c1`, which Potency is on record?
**A.** active: 2.33 µM

**Q.** With `Cc1ccc(S(=O)(=O)NCC(Nc2cccc(Cl)c2)c2ccccc2)cc1` (centres undefined) as the compound, how does the Potency read?
**A.** inconclusive: 23.3 µM [falling, single point]

**Q.** Which Potency does the source give for `CCOc1ccccc1C(=O)Nc1ccc2nc3c(c(Nc4ccc(OC)c(OC)c4)c2c1)CCCC3` here?
**A.** inconclusive: 0.185 µM [falling, full curve, poor fit]

**Q.** With `O=c1c2ccccc2n(Cc2c(F)cccc2Cl)c(=O)n1Cc1ccccc1` as the compound, how does the Potency read?
**A.** inactive

**Q.** Which Potency does the source give for `CCOc1ccc(-c2cc(C(=O)NCCCOC)c3c(-c4ccc(CC)cc4)[nH]nc3n2)cc1` here?
**A.** inconclusive: 4.65 µM [falling, single point]

**Q.** With `CCc1ccccc1NC(=O)CSc1nnc(COc2ccccc2Cl)o1` as the compound, how does the Potency read?
**A.** inactive

**Q.** For `CCCN1C(=O)C(O)(CC(=O)c2ccc(CC)cc2)c2cc(Br)ccc21` (centres undefined), which Potency is on record?
**A.** inconclusive: 23.3 µM [falling, single point]

**Q.** Which Potency does the source give for `CCc1ccc(OCC(=O)N(Cc2ccc(C)cc2)Cc2ccco2)cc1` here?
**A.** inconclusive: 13.1 µM [falling, single point]

**Q.** Which Potency does the source give for `COc1ccccc1CNC(=O)CCc1c(C)c2ccc(OC)c(C)c2oc1=O` here?
**A.** active: 1.47 µM

**Q.** With `CCc1ccc(N2CCn3c2nc2c3c(=O)n(Cc3ccc(F)cc3)c(=O)n2C)cc1` as the compound, how does the Potency read?
**A.** inconclusive: 14.7 µM [falling, single point]

**Q.** For `COc1cc2nc(Nc3ccc(C)c(C)c3)nc(N)c2cc1OC`, which Potency is on record?
**A.** active: 4.14 µM

**Q.** Which Potency does the source give for `COc1ccc(Cl)cc1NC(=O)NCc1noc2ccccc12` here?
**A.** inconclusive: 23.3 µM [falling, single point]

**Q.** Which Potency does the source give for `Cc1ccc(NS(=O)(=O)c2ccc(-c3cc(C)no3)cc2)c(C)c1` here?
**A.** inconclusive: 3.29 µM [falling, full curve, poor fit]

**Q.** With `CN(Cc1ccccc1)C(=O)CSc1c2c(nc3ccc(Cl)cc13)CCCC2` as the compound, how does the Potency read?
**A.** inconclusive: 16.5 µM [falling, single point]

**Q.** For `CN(C)c1ccc(C(CNC(=O)c2ccc(C(C)(C)C)cc2)N2CCCC2)cc1` (centres undefined), which Potency is on record?
**A.** inconclusive: 14.7 µM [falling, single point]

**Q.** For `Cc1ccccc1NC(=O)Cn1c(=O)n(CCCCCC(=O)NCc2ccc3c(c2)OCO3)c(=O)c2sccc21`, which Potency is on record?
**A.** inactive

**Q.** For `Cc1cccc(C)c1NC(=O)CSc1nc(-c2cccs2)cc(C(F)(F)F)n1`, which Potency is on record?
**A.** inconclusive: 16.5 µM [falling, single point]

**Q.** For `CCN1CCC(N(Cc2cccc(OC)c2)C(=O)Nc2cccc(C(F)(F)F)c2)CC1`, which Potency is on record?
**A.** inconclusive: 20.7 µM [falling, single point]

**Q.** Which Potency does the source give for `CCC1CN(C(=O)NCc2ccc(C)cc2)c2cc(C)ccc2O1` (centres undefined) here?
**A.** inconclusive: 18.5 µM [falling, single point]

**Q.** Which Potency does the source give for `CCCCn1c(=N)n(CCOc2ccccc2OC)c2ccccc21` here?
**A.** active: 6.56 µM

**Q.** For `Cc1ccc(CCNC(=O)c2c(C)nn(-c3ccc(F)cc3)c2-n2cccc2)cc1`, which Potency is on record?
**A.** inconclusive: 18.5 µM [falling, partial curve, poor fit]

**Q.** With `Cc1cc(NC(=O)c2ccc(NC(=O)CCS(=O)(=O)c3cccs3)cc2)ccc1Br` as the compound, how does the Potency read?
**A.** inconclusive: 0.656 µM [falling, full curve, poor fit]

**Q.** With `CCOC(=O)c1c(NC(=O)c2cc(CC)on2)sc(C(C)=O)c1C` as the compound, how does the Potency read?
**A.** inconclusive: 0.0046 µM [activator, full curve, poor fit]

**Q.** With `COc1ccc(CCN2CCC(CNC(=O)c3cnn(-c4cccc(Cl)c4)c3C3CCN(C(=O)OC(C)(C)C)CC3)CC2)cc1` as the compound, how does the Potency read?
**A.** inconclusive: 26.1 µM [falling, single point]

**Q.** With `COc1ccc(N2CCN(C(=O)CSCc3ccc(C)cc3)CC2)cc1` as the compound, how does the Potency read?
**A.** inactive

**Q.** With `O=C(Nc1cccc(-c2nc3ccccc3o2)c1)c1cccc2c(Cl)cccc12` as the compound, how does the Potency read?
**A.** inconclusive: 5.21 µM [falling, single point]

**Q.** With `COc1ccc(-c2nc(S(=O)(=O)c3ccc(C)cc3)c(N3CCCCC3)o2)cc1` as the compound, how does the Potency read?
**A.** active: 13.1 µM

**Q.** Which Potency does the source give for `Cc1cccc(CN2CCC(CNc3ncnc4onc(-c5ccc(Cl)cc5)c34)CC2)c1` here?
**A.** active: 7.36 µM

**Q.** For `Cc1nc2cc(-c3ccccc3)nn2c(C)c1CCC(=O)Nc1ccc(F)cc1F`, which Potency is on record?
**A.** inconclusive: 14.7 µM [falling, single point]

**Q.** With `O=C1CC(c2nc(-c3ccccc3)no2)CN1c1ccccc1` (centres undefined) as the compound, how does the Potency read?
**A.** inconclusive: 5.21 µM [falling, single point]

**Q.** Which Potency does the source give for `COc1ccc(Cl)cc1S(=O)(=O)NCc1ccc2c(c1)CCN2C(=O)c1cccc(C)c1` here?
**A.** inconclusive: 14.7 µM [falling, partial curve, poor fit]

**Q.** Which Potency does the source give for `CC(C)c1ccc(C2NC(=O)c3n[nH]c(-c4cccs4)c32)cc1` (centres undefined) here?
**A.** inconclusive: 0.0037 µM [activator, full curve, poor fit]

**Q.** With `CC(=O)c1ccc(N2CCN(S(=O)(=O)c3ccc(-c4coc(C)n4)cc3)CC2)cc1` as the compound, how does the Potency read?
**A.** inactive

**Q.** Which Potency does the source give for `Cc1cc(C)c(Nc2ncnc3c2cnn3C)c(C)c1` here?
**A.** inactive

**Q.** For `CCCCOc1ccc(CNC(=O)c2ccc3c(c2)N(C)C(=O)C2CCCCN32)cc1` (centres undefined), which Potency is on record?
**A.** inconclusive: 23.3 µM [falling, partial curve, poor fit]

Reference: PubChem BioAssay AID504465 (National Center for Advancing Translational Sciences (NCATS), 2011)
